# From patent US8329736B2, “Triazole compounds that modulate HSP90 activity” (Synta Pharmaceuticals, Corp., priority 2006, dated 2012)
# Some results were stated once for a whole list of compounds, not compound by compound.
# Tested on: Her2
# Test: Her2 degradation IC50 (Example B, Method 2, Table 2)
# Type: cell-based, human
# Settings: read-out: IC50 range of compounds of the invention for Her2 degradation
compound,measurement,value
"CCOP(=O)(OCC)c1ccc(Cn2c(O)nnc2-c2cc(C(C)C)c(O)cc2O)cc1 [Compound 111, diethyl 4-((3-(2,4-dihydroxy-5-isopropylphenyl)-5-hydroxy-4H-1,2,4-triazol-4-yl)methyl)phenylphosphonate]",IC50,< 500 nM
